This is an account of results in the supplement of paper PMC12067093, “Discovery and optimisation of a covalent ligand for TRIM25 and its application to targeted protein ubiquitination” (Chemical Science, 2025).

By UniProt entry, the sequences of proteins in these tests, tags left out. Where a name states a change or a piece, a line headed by the entry shows the natural chain unless it says otherwise.
UniProt O15270: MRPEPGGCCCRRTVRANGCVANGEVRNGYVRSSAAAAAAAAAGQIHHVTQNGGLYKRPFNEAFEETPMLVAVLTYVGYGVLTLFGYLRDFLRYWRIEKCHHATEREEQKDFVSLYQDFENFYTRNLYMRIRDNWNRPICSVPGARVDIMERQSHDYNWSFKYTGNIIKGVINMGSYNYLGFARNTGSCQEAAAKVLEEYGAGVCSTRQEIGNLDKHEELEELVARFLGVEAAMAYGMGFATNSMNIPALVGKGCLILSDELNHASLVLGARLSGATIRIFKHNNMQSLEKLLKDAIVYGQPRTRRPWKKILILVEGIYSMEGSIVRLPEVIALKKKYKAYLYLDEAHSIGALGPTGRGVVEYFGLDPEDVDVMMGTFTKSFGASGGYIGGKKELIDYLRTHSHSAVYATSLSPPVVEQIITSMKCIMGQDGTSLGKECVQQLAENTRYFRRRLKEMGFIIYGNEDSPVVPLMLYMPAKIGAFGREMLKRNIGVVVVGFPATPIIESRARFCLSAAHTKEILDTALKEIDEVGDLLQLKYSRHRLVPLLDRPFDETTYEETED
UniProt Q01082, whole entry, looked up: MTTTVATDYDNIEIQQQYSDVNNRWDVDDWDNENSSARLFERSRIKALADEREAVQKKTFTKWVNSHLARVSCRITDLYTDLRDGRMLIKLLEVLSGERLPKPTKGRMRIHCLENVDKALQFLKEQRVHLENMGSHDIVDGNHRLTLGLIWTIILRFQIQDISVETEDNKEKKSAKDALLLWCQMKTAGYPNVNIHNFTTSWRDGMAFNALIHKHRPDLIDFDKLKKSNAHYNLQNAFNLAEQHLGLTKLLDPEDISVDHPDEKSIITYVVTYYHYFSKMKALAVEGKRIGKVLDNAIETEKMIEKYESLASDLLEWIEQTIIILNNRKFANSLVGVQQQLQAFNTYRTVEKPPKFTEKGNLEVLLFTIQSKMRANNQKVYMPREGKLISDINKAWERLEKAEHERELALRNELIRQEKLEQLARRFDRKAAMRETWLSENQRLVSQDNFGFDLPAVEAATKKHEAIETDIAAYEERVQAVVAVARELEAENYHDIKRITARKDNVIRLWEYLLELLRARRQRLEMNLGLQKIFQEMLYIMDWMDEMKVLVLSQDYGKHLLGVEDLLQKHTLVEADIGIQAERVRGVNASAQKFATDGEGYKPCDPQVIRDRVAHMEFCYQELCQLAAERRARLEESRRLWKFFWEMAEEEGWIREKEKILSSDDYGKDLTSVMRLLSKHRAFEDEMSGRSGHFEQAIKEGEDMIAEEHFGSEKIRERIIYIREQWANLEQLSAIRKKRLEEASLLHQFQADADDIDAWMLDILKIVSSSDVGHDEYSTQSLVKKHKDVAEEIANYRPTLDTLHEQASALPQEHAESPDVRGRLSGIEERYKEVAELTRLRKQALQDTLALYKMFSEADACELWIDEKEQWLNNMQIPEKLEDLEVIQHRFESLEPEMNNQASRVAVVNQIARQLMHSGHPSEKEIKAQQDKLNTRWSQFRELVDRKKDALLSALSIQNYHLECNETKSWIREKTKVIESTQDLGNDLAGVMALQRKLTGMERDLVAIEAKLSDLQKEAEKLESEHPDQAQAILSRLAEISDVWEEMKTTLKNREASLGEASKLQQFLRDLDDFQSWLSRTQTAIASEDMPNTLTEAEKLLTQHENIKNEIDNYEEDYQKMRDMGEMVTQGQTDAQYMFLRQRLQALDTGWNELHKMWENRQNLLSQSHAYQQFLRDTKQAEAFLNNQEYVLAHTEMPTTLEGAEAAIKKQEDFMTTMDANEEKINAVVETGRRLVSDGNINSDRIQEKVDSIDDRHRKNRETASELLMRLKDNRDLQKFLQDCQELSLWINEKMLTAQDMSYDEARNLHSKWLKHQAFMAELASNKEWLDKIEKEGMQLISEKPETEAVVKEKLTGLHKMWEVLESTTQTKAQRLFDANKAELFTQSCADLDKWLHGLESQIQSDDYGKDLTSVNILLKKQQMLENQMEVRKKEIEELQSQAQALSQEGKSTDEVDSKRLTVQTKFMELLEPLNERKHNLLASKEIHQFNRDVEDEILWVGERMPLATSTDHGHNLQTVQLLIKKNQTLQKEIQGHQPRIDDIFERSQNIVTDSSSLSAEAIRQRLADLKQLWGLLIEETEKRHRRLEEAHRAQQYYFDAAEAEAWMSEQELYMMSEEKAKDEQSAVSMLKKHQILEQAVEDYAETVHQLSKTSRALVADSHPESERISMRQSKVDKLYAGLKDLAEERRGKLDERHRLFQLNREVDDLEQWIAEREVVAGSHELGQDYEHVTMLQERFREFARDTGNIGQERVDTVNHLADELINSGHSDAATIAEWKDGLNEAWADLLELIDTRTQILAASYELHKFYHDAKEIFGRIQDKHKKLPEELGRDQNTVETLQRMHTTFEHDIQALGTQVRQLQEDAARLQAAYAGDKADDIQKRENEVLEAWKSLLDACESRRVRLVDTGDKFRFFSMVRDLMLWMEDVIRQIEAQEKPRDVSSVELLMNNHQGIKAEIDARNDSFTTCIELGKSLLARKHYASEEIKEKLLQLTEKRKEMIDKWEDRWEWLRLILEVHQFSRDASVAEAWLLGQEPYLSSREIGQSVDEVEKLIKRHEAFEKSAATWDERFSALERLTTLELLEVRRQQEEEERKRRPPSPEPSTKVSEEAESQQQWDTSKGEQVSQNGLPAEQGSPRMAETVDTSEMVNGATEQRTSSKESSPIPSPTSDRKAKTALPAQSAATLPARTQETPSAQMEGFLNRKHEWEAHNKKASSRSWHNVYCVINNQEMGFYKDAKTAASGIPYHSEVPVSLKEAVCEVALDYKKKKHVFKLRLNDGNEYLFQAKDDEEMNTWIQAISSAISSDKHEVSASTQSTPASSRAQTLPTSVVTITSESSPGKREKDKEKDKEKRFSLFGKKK
UniProt Q92673: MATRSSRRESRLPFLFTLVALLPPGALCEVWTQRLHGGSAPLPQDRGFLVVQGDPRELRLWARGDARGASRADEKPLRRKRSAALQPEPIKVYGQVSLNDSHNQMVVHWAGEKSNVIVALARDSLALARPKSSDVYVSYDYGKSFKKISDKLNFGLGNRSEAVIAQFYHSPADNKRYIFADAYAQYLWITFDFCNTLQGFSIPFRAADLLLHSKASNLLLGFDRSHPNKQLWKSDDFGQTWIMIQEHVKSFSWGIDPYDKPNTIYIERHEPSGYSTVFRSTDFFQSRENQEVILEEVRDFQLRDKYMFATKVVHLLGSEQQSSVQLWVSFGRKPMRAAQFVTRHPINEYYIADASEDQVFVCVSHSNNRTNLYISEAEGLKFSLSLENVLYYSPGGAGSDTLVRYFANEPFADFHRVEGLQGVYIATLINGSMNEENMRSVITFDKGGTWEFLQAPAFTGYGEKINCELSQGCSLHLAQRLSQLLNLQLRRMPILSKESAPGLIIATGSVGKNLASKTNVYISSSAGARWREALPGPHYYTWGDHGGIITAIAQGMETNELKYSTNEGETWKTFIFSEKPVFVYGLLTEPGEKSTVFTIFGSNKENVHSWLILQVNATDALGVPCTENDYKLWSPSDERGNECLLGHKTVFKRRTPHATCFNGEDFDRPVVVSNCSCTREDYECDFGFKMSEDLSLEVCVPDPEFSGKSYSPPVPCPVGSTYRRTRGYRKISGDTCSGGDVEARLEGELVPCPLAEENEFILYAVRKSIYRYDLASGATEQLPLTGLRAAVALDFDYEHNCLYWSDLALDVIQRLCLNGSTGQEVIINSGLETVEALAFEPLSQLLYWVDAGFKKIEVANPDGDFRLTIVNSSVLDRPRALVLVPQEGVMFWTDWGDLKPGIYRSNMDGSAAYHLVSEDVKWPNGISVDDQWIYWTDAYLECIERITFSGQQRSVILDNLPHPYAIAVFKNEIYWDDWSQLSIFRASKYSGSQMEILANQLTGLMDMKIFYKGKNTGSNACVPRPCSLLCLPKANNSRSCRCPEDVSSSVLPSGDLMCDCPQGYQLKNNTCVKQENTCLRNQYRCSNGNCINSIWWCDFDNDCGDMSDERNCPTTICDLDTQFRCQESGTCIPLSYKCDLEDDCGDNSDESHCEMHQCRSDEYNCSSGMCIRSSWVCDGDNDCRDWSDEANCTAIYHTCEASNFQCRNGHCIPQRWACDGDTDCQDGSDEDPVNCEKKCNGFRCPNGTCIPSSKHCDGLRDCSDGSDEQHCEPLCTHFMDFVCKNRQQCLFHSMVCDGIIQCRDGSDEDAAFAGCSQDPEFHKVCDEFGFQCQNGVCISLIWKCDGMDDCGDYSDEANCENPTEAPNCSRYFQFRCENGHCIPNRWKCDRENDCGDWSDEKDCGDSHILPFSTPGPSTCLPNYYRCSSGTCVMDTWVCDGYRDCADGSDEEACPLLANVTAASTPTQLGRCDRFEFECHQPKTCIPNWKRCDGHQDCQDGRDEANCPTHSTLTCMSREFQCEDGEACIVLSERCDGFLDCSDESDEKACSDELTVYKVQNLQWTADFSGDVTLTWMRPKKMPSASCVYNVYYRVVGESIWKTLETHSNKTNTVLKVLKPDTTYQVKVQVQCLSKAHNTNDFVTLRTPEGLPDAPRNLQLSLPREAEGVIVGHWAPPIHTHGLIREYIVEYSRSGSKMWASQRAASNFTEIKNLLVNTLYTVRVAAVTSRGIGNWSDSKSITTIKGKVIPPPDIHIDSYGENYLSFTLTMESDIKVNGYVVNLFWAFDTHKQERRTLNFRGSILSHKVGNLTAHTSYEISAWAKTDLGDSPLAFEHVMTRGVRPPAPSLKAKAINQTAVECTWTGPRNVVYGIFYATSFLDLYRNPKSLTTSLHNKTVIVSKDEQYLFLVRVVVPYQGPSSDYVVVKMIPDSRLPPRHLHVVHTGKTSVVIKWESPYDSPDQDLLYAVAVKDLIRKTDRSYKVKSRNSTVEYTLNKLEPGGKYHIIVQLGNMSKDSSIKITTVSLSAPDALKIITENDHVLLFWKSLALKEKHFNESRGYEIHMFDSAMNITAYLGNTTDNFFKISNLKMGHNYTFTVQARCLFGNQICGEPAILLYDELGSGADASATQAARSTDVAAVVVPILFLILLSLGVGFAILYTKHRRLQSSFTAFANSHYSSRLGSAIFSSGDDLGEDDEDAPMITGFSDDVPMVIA
UniProt Q00796: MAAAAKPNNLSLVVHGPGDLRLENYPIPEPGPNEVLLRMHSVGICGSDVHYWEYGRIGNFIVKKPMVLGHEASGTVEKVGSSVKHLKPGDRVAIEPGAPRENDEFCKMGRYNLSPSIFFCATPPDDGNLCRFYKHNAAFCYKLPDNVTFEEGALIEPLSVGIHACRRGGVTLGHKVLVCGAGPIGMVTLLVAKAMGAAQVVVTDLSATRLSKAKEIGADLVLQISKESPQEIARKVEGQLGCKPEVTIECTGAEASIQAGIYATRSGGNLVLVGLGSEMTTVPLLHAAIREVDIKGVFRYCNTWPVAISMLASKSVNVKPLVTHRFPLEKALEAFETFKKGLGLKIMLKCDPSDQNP
UniProt Q9Y5M8: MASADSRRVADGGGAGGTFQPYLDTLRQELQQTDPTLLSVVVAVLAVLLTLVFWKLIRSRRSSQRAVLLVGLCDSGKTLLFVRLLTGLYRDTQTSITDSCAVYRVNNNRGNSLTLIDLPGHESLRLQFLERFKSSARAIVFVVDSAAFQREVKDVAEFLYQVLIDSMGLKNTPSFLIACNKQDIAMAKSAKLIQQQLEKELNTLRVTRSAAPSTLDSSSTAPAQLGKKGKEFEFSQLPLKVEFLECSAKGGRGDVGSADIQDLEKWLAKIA
UniProt Q8NCJ5: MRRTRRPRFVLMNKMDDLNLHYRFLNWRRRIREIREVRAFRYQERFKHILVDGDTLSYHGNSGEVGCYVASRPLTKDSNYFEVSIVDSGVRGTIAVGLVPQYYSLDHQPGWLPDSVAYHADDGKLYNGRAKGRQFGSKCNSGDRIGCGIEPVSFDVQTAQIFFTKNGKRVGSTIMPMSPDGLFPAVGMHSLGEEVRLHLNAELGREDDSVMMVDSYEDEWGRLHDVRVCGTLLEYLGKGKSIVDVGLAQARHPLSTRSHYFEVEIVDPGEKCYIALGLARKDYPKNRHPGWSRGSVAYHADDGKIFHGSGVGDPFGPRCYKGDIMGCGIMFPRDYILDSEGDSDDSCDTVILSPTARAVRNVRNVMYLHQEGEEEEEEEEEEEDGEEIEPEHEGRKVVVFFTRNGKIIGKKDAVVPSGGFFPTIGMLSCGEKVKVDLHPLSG
UniProt P19623: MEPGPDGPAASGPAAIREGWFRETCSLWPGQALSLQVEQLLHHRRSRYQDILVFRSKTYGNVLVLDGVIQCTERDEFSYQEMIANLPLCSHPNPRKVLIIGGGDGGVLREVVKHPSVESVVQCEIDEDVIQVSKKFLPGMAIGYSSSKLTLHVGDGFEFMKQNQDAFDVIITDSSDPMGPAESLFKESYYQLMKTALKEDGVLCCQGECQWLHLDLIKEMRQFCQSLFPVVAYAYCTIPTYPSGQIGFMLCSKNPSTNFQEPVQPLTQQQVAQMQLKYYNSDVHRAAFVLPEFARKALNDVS
UniProt P49458: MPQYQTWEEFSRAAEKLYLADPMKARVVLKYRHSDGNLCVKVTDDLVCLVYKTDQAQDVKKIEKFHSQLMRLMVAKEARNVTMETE

Compound in this assay: Cc1cc(ccc1-c1ccccc1)C(=O)N1CCCN(CC1)C(=O)CCl [compound 10]
The experiment in a line: probe-labelled cysteine peptide fold change vs DMSO (competition) (log2 fold change); higher = less target engagement (more negative = stronger competition). The following applies: THP-1, incubation time: 4 h.

Some of the results follow.
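Note: competitive profiling in live THP-1 cells: cysteine peptides tagged with an iodoacetamide desthiobiotin (IA-DTB) probe, intensity after compound treatment relative to DMSO-treated cells.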

For the target “SPTLC2_O15270_99_CHHATER (UniProt O15270)”, the “probe-labelled cysteine peptide fold change” value reads like this: (10 µM) 0.306; (50 µM) 0.809.
The corresponding values for “SRCAP_Q6ZRS2_1926_IFQLSEAHGALAPVYGTEVLDFCTLPQPVASPIGPR (UniProt Q6ZRS2)” are 0.324 and 0.642.
For “SPAG9_O60271_761_NQEELSSLVWICTSTHSATK (UniProt O60271)”, the “probe-labelled cysteine peptide fold change” value (10 µM) was found to be 0.263 and the “probe-labelled cysteine peptide fold change” value (50 µM) worked out at 0.124.
“SNRPD3_P62318_41_LIEAEDNMNCQMSNITVTYR (UniProt P62318)”: the “probe-labelled cysteine peptide fold change” value is, setting by setting: (10 µM) 0.0675; (50 µM) 0.224.
For “SPTBN1_Q01082_2227_SWHNVYCVINNQEMGFYK (UniProt Q01082)”, in that order: 0.249 and -0.0578.
In the case of “SREK1_Q8WXA9-2_96_ALIVVPCAEGK (UniProt Q8WXA9)”, the “probe-labelled cysteine peptide fold change” value reads like this: (10 µM) -0.00998; (50 µM) 0.0383.
The corresponding values for “SRCAP_Q6ZRS2_2372_EEVFRLPQEEEEGPGAGDESSCGTGGGTHR (UniProt Q6ZRS2)” are 0.02 and 0.131.
Turning to “SNX29_Q8TEQ0_121_CALNEHSLER (UniProt Q8TEQ0)”, the “probe-labelled cysteine peptide fold change” value reads like this: (10 µM) -0.082; (50 µM) -0.0504.
For “SORL1_Q92673_1376_CENGHCIPNR (UniProt Q92673)”, in that order: -0.0681 and -5.81e-05.
“SPTBN1_Q01082_1900_SLLDACESRR (UniProt Q01082)”: the “probe-labelled cysteine peptide fold change” value runs as follows: (10 µM) 0.0337; (50 µM) -0.154.
With “SPR_P35270_10_AVCLLTGASR (UniProt P35270)”, the “probe-labelled cysteine peptide fold change” value reads like this: (10 µM) -0.063; (50 µM) -0.045.
For “SQOR_Q9Y6N5_201_CAGAPQK (UniProt Q9Y6N5)”, in that order: -0.191 and -0.122.
The corresponding values for “SNTB1_Q13884_515_DGEIQLDLHSCPKPIVFIIHSFLSAK (UniProt Q13884)” are -0.183 and 0.331.
Take “SP100_P23497_373_EGQEATCSRPQIVPEPMDFR (UniProt P23497)”: the “probe-labelled cysteine peptide fold change” value (10 µM) was -0.146 and the “probe-labelled cysteine peptide fold change” value (50 µM) was -0.282.
Take “SPATA5_Q8NB90_574_VLCNEAGLCALRR (UniProt Q8NB90)”: the “probe-labelled cysteine peptide fold change” value (10 µM) came to 0.00199 and the “probe-labelled cysteine peptide fold change” value (50 µM) is -0.227.
On to “SNX8_Q9Y5X2_200_ESAQCVGDEFLNCK (UniProt Q9Y5X2)”, for which the “probe-labelled cysteine peptide fold change” value is -0.32 (10 µM) and -0.983 (50 µM).
For “SPART_Q8N0X7_504_VSQFLVDGVCTVANCVGK (UniProt Q8N0X7)”, in that order: -0.0452 and -0.831.
The corresponding values for “SORD_Q00796_179_VLVCGAGPIGMVTLLVAK (UniProt Q00796)” are -0.0988 and -1.77.
For “SPTBN1_Q01082_624_VAHMEFCYQELCQLAAER (UniProt Q01082)”, the “probe-labelled cysteine peptide fold change” value (10 µM) is 0.0239 and the “probe-labelled cysteine peptide fold change” value (50 µM) came out at 0.0283.
The corresponding values for “SPOUT1_Q5T280_10_RPCGPGEHGQR (UniProt Q5T280)” are -0.19 and 0.0479.
For “SPTLC2_O15270_511_FCLSAAHTK (UniProt O15270)”, in that order: 0.0111 and 0.0538.
For “SNX27_Q96L92_519_VFCELK (UniProt Q96L92)”, in that order: -0.256 and -0.213.
On to “SRPRB_Q9Y5M8_100_DTQTSITDSCAVYR (UniProt Q9Y5M8)”, for which the “probe-labelled cysteine peptide fold change” value is -0.0956 (10 µM) and 0.338 (50 µM).
Take “SRBD1_Q8N5C6_120_CAAQPHTVR (UniProt Q8N5C6)”: the “probe-labelled cysteine peptide fold change” value is -0.0573 (10 µM) and -0.126 (50 µM).
On to “SPRYD3_Q8NCJ5_147_IGCGIEPVSFDVQTAQIFFTK (UniProt Q8NCJ5)”, for which the “probe-labelled cysteine peptide fold change” value runs as follows: (10 µM) -0.324; (50 µM) 0.199.
For “SPTBN1_Q01082_861_MFSEADACELWIDEK (UniProt Q01082)”, in that order: -0.053 and 0.00371.
For “SORD_Q00796_130_YNLSPSIFFCATPPDDGNLCR (UniProt Q00796)”, in that order: 0.0585 and 0.371.
As for “SRPRA_P08240_253_VWELGGCANK (UniProt P08240)”, the “probe-labelled cysteine peptide fold change” value (10 µM) is -0.192 and the “probe-labelled cysteine peptide fold change” value (50 µM) was -0.783.
As for “SPAG1_Q07617_825_EACAHLLAITAPK (UniProt Q07617)”, the “probe-labelled cysteine peptide fold change” value by setting is: (10 µM) -0.0854; (50 µM) -0.173.
The corresponding values for “SORL1_Q92673_1302_QQCLFHSMVCDGIIQCR (UniProt Q92673)” are -0.13 and 0.101.
For “SPAST_Q9UBP0_220_SQTDVYNDSTNLACR (UniProt Q9UBP0)”, in that order: -0.252 and -0.251.
Regarding “SPECC1_Q5M775_578_ATEASAVEQTAESCEVQEMLK (UniProt Q5M775)”, the “probe-labelled cysteine peptide fold change” value (10 µM) is -0.116 and the “probe-labelled cysteine peptide fold change” value (50 µM) was -0.22.
For the target “SP3_Q02447_623+628_QHICHIPGCGK (UniProt Q02447)”, the “probe-labelled cysteine peptide fold change” value (10 µM) was -0.239 and the “probe-labelled cysteine peptide fold change” value (50 µM) was -0.41.
For “SRP54_P61011_136_TCLICADTFR (UniProt P61011)”, in that order: -0.0353 and -0.0655.
The corresponding values for “SPTAN1_Q13813_158_ECEDVMDWINDK (UniProt Q13813)” are 0.156 and 0.35.
In the case of “SON_P18583_2070_ANAAAMCAK (UniProt P18583)”, the “probe-labelled cysteine peptide fold change” value runs as follows: (10 µM) -0.121; (50 µM) -0.254.
As for “SRM_P19623_209_EDGVLCCQGECQWLHLDLIK (UniProt P19623)”, the “probe-labelled cysteine peptide fold change” value stood at 0.155 (10 µM) and 0.837 (50 µM).
The corresponding values for “SRM_P19623_25_ETCSLWPGQALSLQVEQLLHHR (UniProt P19623)” are 0.023 and 0.121.
As for “SPTAN1_Q13813_1454_DCEQAENWMAAR (UniProt Q13813)”, the “probe-labelled cysteine peptide fold change” value is, setting by setting: (10 µM) 0.0387; (50 µM) -0.0591.
The corresponding values for “SQSTM1_Q13501_113_DHRPPCAQEAPR (UniProt Q13501)” are 0.0561 and -0.536.
The corresponding values for “SRP9_P49458_39_HSDGNLCVK (UniProt P49458)” are 0.123 and 0.0246.
The corresponding values for “SP4_Q02446_625_VACSCPNCR (UniProt Q02446)” are -0.071 and -0.0712.
Turning to “SRM_P19623_25_ETCSLWPGQALSLQVEQLLHHRR (UniProt P19623)”, the “probe-labelled cysteine peptide fold change” value runs as follows: (10 µM) -0.0204; (50 µM) 0.0529.
For “SPG11_Q96JI7_1890_LLDDGCVHEASR (UniProt Q96JI7)”, in that order: -0.25 and -0.371.
The corresponding values for “SRP9_P49458_48_VTDDLVCLVYK (UniProt P49458)” are 0.216 and -0.255.
For “SNU13_P55769_102_PVIACSVTIK (UniProt P55769)”, in that order: 0.154 and 0.0502.
“SRGAP2_O75044_486_TDCSLAR (UniProt O75044)”: the “probe-labelled cysteine peptide fold change” value was -0.256 (10 µM) and -0.689 (50 µM).
“SPATA2_Q9UM82_41_QRPGSDECLR (UniProt Q9UM82)”: the “probe-labelled cysteine peptide fold change” value reads like this: (10 µM) -0.46; (50 µM) -1.35.
The corresponding values for “SNUPN_O95149_356_GSSHSPDHPGCLMEN (UniProt O95149)” are -0.229 and -0.623.
Regarding “SPTAN1_Q13813_1622_GACAGSEDAVK (UniProt Q13813)”, the “probe-labelled cysteine peptide fold change” value was determined as 0.207 (10 µM) and 0.0757 (50 µM).
The corresponding values for “SOS1_Q07889_838_CIVETENLEER (UniProt Q07889)” are 0.113 and 0.392.
